Experimental data published in PubChem BioAssay AID485314 (National Center for Advancing Translational Sciences (NCATS), 2010).
Hit rate of the full screen: of about 340,000 compounds, about 4,500 (1.3%) were called active. The inconclusive results got no clear call from the source; some entries with a clear call stand among them for comparison. Calls come from the whole dose curve; as a rule, active = well fitted inhibition curve with a large enough effect; inconclusive = small, poorly fitted or top-dose-only effect, or another doubt; inactive = no such curve, though single readings can be large or run the other way. A potency beside an inconclusive call is a rough fit, not a confirmed value.

What follows are molecules tested against DNA polymerase beta (Homo sapiens) (UniProt P06746) (assay: qHTS Assay for Inhibitors of DNA Polymerase Beta). Settings: Pol beta primer extension/strand displacement, fluorescence kinetic; activity change, negative = inhibition: at 114 µM (top of the series).
Procedure, shortened: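 Curves were derived by four-parameter Hill fits of normalized qHTS data. The kinetic fluorescent primer-extension read was taken at 0 and 10 min after 50 nM substrate, following a 15 min room-temperature preincubation of 10 nM enzyme with compounds.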
% is set by controls: 0 for no effect and ±100 for the full control effect; potency is the fitted concentration of half-maximal effect.

Structure (SMILES)	Potency	activity change, negative = inhibition
COc1ccccc1N1CCN(C2CCN(C(=O)COc3ccccc3)CC2)CC1	inconclusive: 0.224 µM [inhibitor, full curve, poor fit]	–
CCOc1ccc(C(=O)Nc2ccc3nc(Nc4cccc(C(F)(F)F)c4)cc(C)c3c2)cc1OCC	–	inactive: -22.8%
COc1ccc(C(CC(=O)Nc2cc(Cl)c(OC)cc2OC)N2Cc3ccccc3C2=O)cc1 (stereo not given)	–	inactive: 18.7%
O=C(O)Cc1sc(Nc2cccc3ccccc23)nc1-c1ccc(Cl)cc1	inconclusive: 56.2 µM [inhibitor, partial curve, poor fit]	–
NC(=S)NNc1ccnc2cc(Cl)ccc12	–	inactive: 1.08%
CCCN1CCN(C(=O)Cn2ncc3ccccc32)CC1	active: 12.6 µM	–
CC(C)C(Sc1nc(-c2ccccc2)cc(-c2ccccc2)c1C#N)C(=O)O (stereo not given)	inconclusive: 89.1 µM [inhibitor, single point]	–
Cc1cc(C)n(-c2nc3ccccc3nc2Nc2ccc3[nH]c(=O)[nH]c3c2)n1	inconclusive: 17.8 µM [inhibitor, full curve, poor fit]	–
O=C(O)CSc1cc(C(=O)c2cc(F)ccc2O)cn2c(=O)c3c(-c4ccccc4)csc3nc12	inconclusive: 11.2 µM [inhibitor, full curve, poor fit]	–
O=C1CCCc2oc3ccc(NS(=O)(=O)c4cccc5cccnc45)cc3c21	–	inactive: -18.2%
Cc1ccccc1NS(=O)(=O)c1ccc2[nH]cc(C(=O)NCCc3ccccc3)c(=O)c2c1	active: 44.7 µM	–
O=C(Cc1cccs1)Nc1nnc(SCC(=O)NC2CCCCC2)s1	inconclusive: 31.6 µM [inhibitor, single point]	–
O=C(CC1C(=O)NCCN1C(=O)c1ccc([N+](=O)[O-])cc1)Nc1ccc(F)cc1 (stereo not given)	inconclusive: 0.141 µM [inhibitor, full curve, poor fit]	–
Cc1ccc(NC(=O)CN2C(=O)CC(c3ccco3)Sc3ccccc32)cc1Cl (stereo not given)	inconclusive: 15.8 µM [inhibitor, partial curve]	–
CCCCOC(=O)NC(NCC(O)c1ccccc1)(C(F)(F)F)C(F)(F)F (stereo not given)	inconclusive: 0.141 µM [inhibitor, full curve, poor fit]	–
Oc1ccccc1/C=N/Nc1nccnc1Cl	inconclusive: 89.1 µM [inhibitor, single point]	–
OCCN(CCO)c1nc(-c2ccccc2)nc2c1oc1ccccc12	inconclusive: 39.8 µM [inhibitor, single point]	–
COc1ccc(C(=O)N/N=C/c2ccccc2C(=O)O)cc1OC	–	inactive: -7.33%
Cc1ccc(C(=O)O)cc1NC(=O)c1nsc2ccccc12	active: 79.4 µM	–
Oc1cc(O)cc(/C=C/c2ccc(O)c(O)c2)c1	active: 7.94 µM	–
COC(=O)c1sc(N2C(=O)c3oc4ccc(C)cc4c(=O)c3C2c2ccc(OC)cc2)nc1C (stereo not given)	–	inactive: 20.4%
COc1ccc(-c2csc(NC(=O)c3ccco3)n2)cc1	inconclusive: 56.2 µM [inhibitor, partial curve]	–
COC(=O)c1sc2ncccc2c1OCc1cccc(Cl)c1	–	inactive: 8.06%

Structure (SMILES)	Potency	activity change, negative = inhibition
Cc1cc(C)c(C(=O)CSc2n[nH]c(-c3ccncc3)n2)c(C)c1	inconclusive: 8.91 µM [inhibitor, full curve, poor fit]	–
CCN1c2ccc(S(=O)(=O)N3CCOCC3)cc2N(Cc2ccc(OC)cc2)C1C (stereo not given)	inconclusive: 39.8 µM [inhibitor, single point]	–
COc1ccccc1CCNC(=O)Cn1ccc2cc(S(=O)(=O)N3CCC(C)CC3)ccc21	–	inactive: 16.4%
O=C(N/N=C/c1ccco1)c1cnccn1	inconclusive: 15.8 µM [inhibitor, partial curve]	–
CC(=O)c1cccc(NC(=O)c2cccc(NC(=O)c3ccco3)c2)c1	inconclusive: 50.1 µM [inhibitor, partial curve]	–
CC(C)Cc1nnc(NC(=O)c2cc([N+](=O)[O-])ccc2N2CCOCC2)s1	inconclusive: 89.1 µM [inhibitor, single point]	–
Cc1nnc(SCc2ccccc2Cl)c2cc3sccc3n12	inconclusive: 39.8 µM [inhibitor, single point]	–
O=C1/C(=C\c2ccc(O)cc2)SC(=S)N1c1cccnc1	inconclusive: 15.8 µM [inhibitor, full curve]	–
CCc1ccc(NC(=O)CS(=O)CC(=O)NC(C)CCc2ccco2)cc1 (stereo not given)	inconclusive: 44.7 µM [inhibitor, partial curve]	–
O=C(CCn1c(=S)oc2ccccc21)Nc1ccccc1F	–	inconclusive: -30.7% [inhibitor]
O=C(CSc1nc2ccccc2o1)N1CCOCC1	–	inactive: 7.35%
Oc1ccc(-c2cn3cc(C(F)(F)F)ccc3n2)cc1	inconclusive: 20 µM [inhibitor, full curve, poor fit]	–
Cc1ccc2[nH]c(C(=O)Nc3ccccc3)cc2c1	inconclusive: 100 µM [inhibitor, single point]	–
COC(=O)c1ccc(C(=O)OC)c(NC(=O)CSc2ccccn2)c1	inconclusive: 100 µM [inhibitor, single point]	–
CC(C)(CNC(=O)C1c2ccccc2-c2ccccc21)N1CCOCC1	inconclusive: 100 µM [inhibitor, single point]	–
COc1ccc(-c2[nH]c(-c3ccccc3)nc2SCC(=O)Nc2ccc3c(c2)OCCO3)cc1	inconclusive: 89.1 µM [inhibitor, single point]	–
N#Cc1c(-c2ccc(F)cc2)cc(-c2ccccc2)nc1SCC(=O)NCC(=O)O	active: 44.7 µM	–
Cc1cccc(NC(=O)C2(c3ccccc3)CC2(Cl)Cl)c1 (stereo not given)	inconclusive: 14.1 µM [inhibitor, full curve, poor fit]	–
Cc1c(NC(=O)Nc2ccc(Cl)c(Cl)c2)c(=O)n(-c2ccccc2)n1C	inconclusive: 0.708 µM [inhibitor, full curve, poor fit]	–
COc1ccccc1-n1c(SCC(=O)N2CCOCC2)nc(O)cc1=O	inconclusive: 1 µM [inhibitor, full curve, poor fit]	–
O=C(CSc1nnc(-c2ccc(Cl)cc2)o1)N1CCN(c2ccccc2)CC1	active: 31.6 µM	–
Cc1cc2nc3s/c(=C/c4ccc(-c5ccccc5C(=O)O)o4)c(=O)n3c2cc1C	inconclusive: 50.1 µM [inhibitor, partial curve]	–
COc1ccc(Cl)cc1NC(=O)Nc1cn(C)nc1C	inconclusive: 25.1 µM [inhibitor, single point]	–
CCn1cc(C(=O)NCc2ccco2)c(=O)c2cc(F)c(N3CCN(C(=O)c4ccco4)CC3)cc21	active: 14.1 µM	–

A few values from the results shown.
O=C1CCCc2oc3ccc(NS(=O)(=O)c4cccc5cccnc45)cc3c21 – activity change, negative = inhibition: inactive: -18.2%
CCn1cc(C(=O)NCc2ccco2)c(=O)c2cc(F)c(N3CCN(C(=O)c4ccco4)CC3)cc21 – Potency: active: 14.1 µM

(listing goes on)

Structure (SMILES)	Potency	activity change, negative = inhibition
Cc1ccc(S(=O)(=O)CCC(=O)Nc2ccc(Br)cc2C)cc1	–	inactive: 32.8%
CC(C)Oc1ccc2c(=O)c(-c3ccccc3)coc2c1	inconclusive: 25.1 µM [inhibitor, single point]	–
COc1ccc(NC(=O)Cn2c(=O)cc(C)c3c(C)nn(-c4cccc(Cl)c4C)c32)cc1OC	inconclusive: 89.1 µM [inhibitor, single point]	–
O=C(NCCc1csc(-c2ccc(F)cc2)n1)c1cccs1	inconclusive: 100 µM [inhibitor, single point]	–
O=C(COc1ccc2ccccc2c1)Nc1nnc(-c2ccco2)s1	–	inconclusive: -37.8% [inhibitor]
COc1ccc(-c2noc(CSc3nnc(Cc4ccccc4)n3-c3ccccc3)n2)cc1OC	–	inactive: 8.3%
COC(=O)/C(C#N)=C/c1c[nH]c2ccccc12	inconclusive: 89.1 µM [inhibitor, single point]	–
O=C(CCc1ccc(O)c(O)c1)N/N=C/c1cc2c(cc1[N+](=O)[O-])OCO2	active: 25.1 µM	–
CCOC(=O)CSc1ccc2nnc(-c3ccccc3)n2n1	–	inactive: 0.791%
Cc1ccc(-c2csc(NC(=O)CN3CCOCC3)n2)cc1C	inconclusive: 89.1 µM [inhibitor, partial curve, poor fit]	–
CCCc1nn2c(=O)cc(COC(=O)c3ccc(NC(=O)CCc4ccccc4)cc3)nc2s1	inconclusive: 6.31 µM [inhibitor, partial curve]	–
COc1cc(/C=C2/SC(=S)N(Cc3ccccc3)C2=O)cc(OC)c1O	active: 14.1 µM	–
CCOc1ncccc1C(=O)OC(C)C(=O)Nc1ccc(CC)cc1 (stereo not given)	inconclusive: 0.631 µM [inhibitor, full curve, poor fit]	–
CC(C(=O)c1ccc(-c2ccccc2)cc1)[n+]1cccc(Br)c1 (stereo not given)	inconclusive: 2.51 µM [inhibitor, full curve, poor fit]	–
O=C(CCN1C(=O)/C(=C/c2ccc3c(c2)OCO3)SC1=S)Nc1ccc(C(=O)O)cc1	inconclusive: 63.1 µM [inhibitor, single point]	–
CCOc1ccc(N2CC(C(=O)N/N=C/c3sccc3C)CC2=O)cc1 (stereo not given)	inconclusive: 79.4 µM [inhibitor, single point]	–
Cc1ccc(C(=O)OCC(=O)NC2CCCCC2)o1	–	inactive: 3.53%
Cc1cccc(C(=O)Oc2ccccc2C2C[C@]3(C)CC(=O)NC3N2C(=O)c2cccc(C)c2)c1 (stereo not given in full)	inconclusive: 89.1 µM [inhibitor, single point]	–
N#Cc1ccsc1NC(=O)CCc1ccccc1	inconclusive: 89.1 µM [inhibitor, single point]	–
CCN(CC)c1ccc(C=C2C(=O)OC3(CCCC3)OC2=O)cc1	–	inactive: -1.28%
Cc1cc(Br)c2nc3c(c(C(=O)O)c2c1)CCCCC3	–	inactive: 8.16% [at 57.1 µM]
Cc1cccc(NC(=O)Nc2ccc(Br)cc2)n1	inconclusive: 89.1 µM [inhibitor, single point]	–
